± gives the standard deviation of the averaged measurements. Most entries show no effect beyond the scatter of the controls.
Key:
Test in all cases: level (log10 ratio to DMSO vehicle control); higher = higher biomarker level / cell amount than vehicle control
[1] = compound: O=S(=O)(F)C(F)(F)C(F)(F)C(F)(F)C(F)(F)C(F)(F)C(F)(F)C(F)(F)C(F)(F)F [Perfluorooctanesulfonyl fluoride]; conditions: 2200 nM; in DMSO
Experimental: (§1)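 BioMAP Diversity Plus panel of 12 human primary cell co-culture systems (3C, 4H, LPS, SAg, BT, BF4T, BE3C, CASM3C, HDF3CGF, KF3CT, MyoF, Mphg). Compounds were added 1 h before stimulation and left for 24 h (MyoF 48 h; BT 72 h for soluble read-outs or 6 d for IgG). Biomarkers were read by ELISA, cytotoxicity by SRB, PBMC viability and proliferation by Alamar Blue. Each well value was divided by the mean of 8 DMSO control wells on the same plate and log10 transformed; duplicate blinded samples were tested at 4 concentrations.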

[2] = compound: O=C(O)C(F)(F)C(F)(F)C(F)F [4H-Perfluorobutanoic acid]; conditions: in DMSO
Experimental: as §1

[3] = compound: NC(=O)C(F)(F)C(F)(F)C(F)(F)C(F)F; conditions: in DMSO
Experimental: as §1

[4] = compound: O=S(=O)(O)C(F)(F)C(F)(F)C(F)(F)C(F)(F)C(F)(F)C(F)(F)C(F)(F)C(F)(F)F [Perfluorooctanesulfonic acid]; conditions: 2200 nM; in DMSO
Experimental: as §1

[5] = compound: OCCCCC(F)(F)C(F)(F)C(F)(F)C(F)(F)F [4:4 Fluorotelomer alcohol]; conditions: 2200 nM; in DMSO
Experimental: as §1

[6] = compound: CO[Si](C)(CCC(F)(F)C(F)(F)C(F)(F)C(F)(F)C(F)(F)C(F)(F)F)OC [Dimethoxymethyl((perfluorohexyl)ethyl)silane]; conditions: in DMSO
Experimental: as §1

[7] = compound: C=CC(=O)OCC(F)(F)C(F)(F)C(F)(F)C(F)(F)C(F)(F)C(F)(F)C(F)(F)F [1H,1H-Perfluorooctyl acrylate]; conditions: 2200 nM; in DMSO
Experimental: as §1

[8] = compound: O=P(O)(O)CCC(F)(F)C(F)(F)C(F)(F)C(F)(F)C(F)(F)C(F)(F)F [2-(Perfluorohexyl)ethylphosphonic acid]; conditions: 2200 nM; in DMSO
Experimental: as §1

[9] = compound: C=C(C)C(=O)OCC(F)(F)C(F)(F)C(F)(F)C(F)(F)C(F)(F)C(F)(F)C(F)(F)F; conditions: in DMSO
Experimental: as §1

[10] = compound: FC(F)(F)C(F)(F)C(F)(F)CC1CO1 [1H,1H-Heptafluorobutyl epoxide]; conditions: 2200 nM; in DMSO
Experimental: as §1

[11] = compound: C=CC(F)(F)C(F)(F)C(F)(F)C(F)(F)C(F)(F)C(F)(F)C(F)(F)C(F)(F)C=C [1,8-Divinylperfluorooctane]; conditions: in DMSO
Experimental: as §1

[12] = compound: O=S(=O)(OCC(F)(F)F)C(F)(F)C(F)(F)C(F)(F)C(F)(F)F [2,2,2-Trifluoroethyl perfluorobutanesulfonate]; conditions: 2200 nM; in DMSO
Experimental: as §1

[13] = compound: NS(=O)(=O)C(F)(F)C(F)(F)C(F)(F)C(F)(F)C(F)(F)C(F)(F)C(F)(F)C(F)(F)F [Perfluorooctanesulfonamide]; conditions: in DMSO
Experimental: as §1

[14] = compound: O=S(=O)(O)C(F)(F)C(F)(F)C(F)(F)C(F)(F)C(F)(F)C(F)(F)C(F)(F)C(F)(F)F [Potassium perfluorooctanesulfonate]; conditions: 2200 nM; in DMSO
Experimental: as §1

Pentafluoropropionamide = compound: NC(=O)C(F)(F)C(F)(F)F [Pentafluoropropionamide]; conditions: 2200 nM; in DMSO
Experimental: as §1

[15] = compound: OCC(F)(F)C(F)(F)C(F)(F)C(F)(F)C(F)(F)C(F)F [1H,1H,7H-Dodecafluoro-1-heptanol]; conditions: 2200 nM; in DMSO
Experimental: as §1

[16] = compound: COC(=O)C(F)(F)C(F)(F)OC(F)(C(F)(F)F)C(F)(F)OC(F)=C(F)F [Methyl perfluoro(3-(1-ethenyloxypropan-2-yloxy)propanoate)]; conditions: in DMSO
Experimental: as §1

Heptafluorobutyl iodide = compound: FC(F)(F)C(F)(F)C(F)(F)CI [Heptafluorobutyl iodide]; conditions: 2200 nM; in DMSO
Experimental: as §1

Test System | level (log10) [1] | level (log10) ([2]; 2200 nM) | level (log10) ([2]; 6700 nM) | level (log10) ([2]; 20000 nM) | level (log10) ([2]; 60000 nM) | level (log10) ([3]; 2200 nM) | level (log10) ([3]; 6700 nM) | level (log10) ([3]; 20000 nM) | level (log10) ([3]; 60000 nM) | level (log10) [4] | level (log10) [5] | level (log10) ([6]; 740 nM) | level (log10) ([6]; 2200 nM) | level (log10) [7] | level (log10) [8] | level (log10) ([9]; 740 nM) | level (log10) ([9]; 2200 nM) | level (log10) [10] | level (log10) ([11]; 740 nM) | level (log10) ([11]; 2200 nM) | level (log10) [12] | level (log10) ([13]; 2200 nM) | level (log10) ([13]; 6700 nM) | level (log10) ([13]; 20000 nM) | level (log10) [14] | level (log10) (Pentafluoropropionamide) | level (log10) [15] | level (log10) ([16]; 740 nM) | level (log10) ([16]; 2200 nM) | level (log10) (Heptafluorobutyl iodide)
BF4T:CD54/ICAM-1 | -0.001 ± 0.0014 | -0.0065 ± 0.016 | 0.002 ± 0.0085 | -0.0025 ± 0.032 | 0.0075 ± 0.032 | 0.0065 ± 0.0021 | -0.0105 ± 0.015 | -0.0095 ± 0.022 | -0.0045 ± 0.0021 | 0.009 ± 0.033 | 0.0105 ± 0.015 | -0.01 ± 0.0071 | -0.0185 ± 0.0021 | 0.011 ± 0.0071 | 0 ± 0.03 | 0.002 ± 0.011 | -0.002 ± 0.0028 | -0.012 ± 0.0057 | -0.0165 ± 0.0064 | -0.0065 ± 0.018 | -0.019 ± 0.011 | -0.0125 ± 0.028 | -0.029 ± 0.0014 | -0.06 ± 0.045 | 0.01 ± 0.038 | -0.015 ± 0.0085 | 0.013 ± 0.031 | -0.006 ± 0.021 | -0.0215 ± 0.025 | 0.0095 ± 0.018
BF4T:CD90 | 0.01 ± 0.0014 | 0.0025 ± 0.025 | 0.0045 ± 0.0035 | 0.0095 ± 0.011 | 0.01 ± 0.028 | 0.0005 ± 0.0078 | -0.002 ± 0.0085 | -0.0125 ± 0.0092 | 0.001 ± 0.0028 | 0.003 ± 0.037 | -0.001 ± 0.03 | -0.0135 ± 0.015 | -0.007 ± 0.0057 | -0.001 ± 0.0028 | -0.0035 ± 0.026 | -0.005 ± 0.0042 | -0.0135 ± 0.0021 | -0.006 ± 0.025 | -0.009 ± 0.014 | -0.0135 ± 0.0035 | -0.009 ± 0.0028 | -0.001 ± 0.021 | -0.0275 ± 0.012 | -0.0585 ± 0.016 | 0.006 ± 0.024 | 0.004 ± 0.018 | 0.0035 ± 0.0092 | 0.001 ± 0.0014 | -0.0005 ± 0.0035 | 0.0015 ± 0.012
BF4T:CD106/VCAM-1 | -0.0055 ± 0.005 | -0.025 ± 0.05 | 0.0145 ± 0.033 | -0.0365 ± 0.054 | 0.028 ± 0.078 | 0.011 ± 0.064 | -0.015 ± 0.0028 | -0.014 ± 0.0042 | -0.003 ± 0.023 | -0.0155 ± 0.025 | 0.0495 ± 0.066 | 0.0115 ± 0.035 | 0.0105 ± 0.013 | -0.026 ± 0.038 | 0.029 ± 0.051 | 0.0115 ± 0.054 | -0.0155 ± 0.026 | -0.002 ± 0.0071 | 0.0205 ± 0.015 | 0.0035 ± 0.005 | -0.008 ± 0.016 | 0.0045 ± 0.0035 | -0.052 ± 0.0057 | -0.1125 ± 0.00071 | 0.0315 ± 0.059 | -0.0095 ± 0.0092 | 0.027 ± 0.061 | 0.0175 ± 0.047 | -0.0225 ± 0.016 | 0.014 ± 0.059
BF4T:CXCL8/IL-8 | 0.014 ± 0.035 | 0.04 ± 0.03 | 0.0385 ± 0.0078 | 0.046 ± 0.024 | 0.0445 ± 0.04 | 0.0155 ± 0.028 | 0 ± 0.0071 | -0.0105 ± 0.005 | -0.009 ± 0.0071 | 0.007 ± 0.025 | 0.0025 ± 0.047 | 0.018 ± 0.037 | -0.006 ± 0.04 | 0.0435 ± 0.023 | -0.004 ± 0.051 | 0.0225 ± 0.012 | -0.0005 ± 0.005 | 0.0235 ± 0.013 | 0.0215 ± 0.037 | 0.0085 ± 0.029 | 0.0155 ± 0.019 | -0.012 ± 0.038 | 0.003 ± 0.0057 | 0.0405 ± 0.013 | 0.0105 ± 0.076 | 0.0285 ± 0.03 | 0.0105 ± 0.08 | 0.0315 ± 0.059 | 0.021 ± 0.047 | 0.0635 ± 0.11
